PubChem BioAssay AID652259 | Drosophila RNAi Screening Center | 2013
Screen: 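Knock-downs that push a Wingless-driven reporter up or down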 (primary screen). System: Drosophila clone 8 imaginal disc epithelial cells. Knock-down reagent: long dsRNA against Drosophila genes. Conditions: pathway stimulated by co-transfected Wingless expression plasmid. Measurement: 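Firefly luciferase from a tcf-site Wingless reporter, measured alongside co-transfected Renilla luciferase that tracks transfection; pathway stimulated by a Wingless plasmid; the firefly-to-Renilla ratio is not deposited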. Scale: firefly reporter light: higher = more Wg reporter light, before normalisation; Renilla control light: higher = more transfected or surviving cells. Rule for the call: 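Strong candidates differ from their plate mean by at least two out of four per-plate statistical tests; weak candidates meet just one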. Calls: active = candidate regulator (raises or lowers reporter); inactive = not a candidate.
The deposit covers about 22,000 reagents; this is an unselected part of those with a known target gene and a result. In the full data, 233 (1.1%) got an active call. 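Light values are raw, unnormalised plate reads; the ratio scores behind the reporter calls were not deposited.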 A number with no mark means an inactive call. A plus sign joins genes that one reagent is predicted to hit. Not stated in the record: the amount of reagent, the time to read-out, the dose of the treatment.

For bs [DRSC04676], the values are reporter change call, replicate 1 = Wg reporter activity raised (active); firefly reporter light, replicate 1 = 4347; firefly reporter light, replicate 2 = 11179; Renilla control light, replicate 1 = 1312; Renilla control light, replicate 2 = 3954. Cdc45 [DRSC17747] showed firefly reporter light, replicate 1 = 2470; firefly reporter light, replicate 2 = 5622; Renilla control light, replicate 1 = 897; Renilla control light, replicate 2 = 1652. Silencing of Cdc45 [DRSC18164] came out at: firefly reporter light, replicate 1 = 22016; Renilla control light, replicate 1 = 19328. Silencing of crb [DRSC16927] gave: firefly reporter light, replicate 1 = 1366; firefly reporter light, replicate 2 = 4001; Renilla control light, replicate 1 = 789; Renilla control light, replicate 2 = 1383. Silencing of CG14082 [DRSC10086] gave: firefly reporter light, replicate 1 = 19149; Renilla control light, replicate 1 = 7540. Aps [DRSC10629] showed firefly reporter light, replicate 1 = 12054; Renilla control light, replicate 1 = 4464.

Records listed above marked active, once more:
bs [DRSC04676] | reporter change call, replicate 1 = Wg reporter activity raised (active); firefly reporter light, replicate 1 = 4347; firefly reporter light, replicate 2 = 11179; Renilla control light, replicate 1 = 1312; Renilla control light, replicate 2 = 3954

Additional entries follow.
With knock-down of CG3008 [DRSC00560] the results were firefly reporter light, replicate 1 = 2180; firefly reporter light, replicate 2 = 3868; Renilla control light, replicate 1 = 890; Renilla control light, replicate 2 = 843. After knock-down of CG33502 + CG32857 + CG32500 [DRSC21038] the results were firefly reporter light, replicate 1 = 11419; Renilla control light, replicate 1 = 7224. After knock-down of AP-2mu [DRSC14090], the record shows firefly reporter light, replicate 1 = 8840; firefly reporter light, replicate 2 = 13689; Renilla control light, replicate 1 = 1496; Renilla control light, replicate 2 = 2165. With knock-down of CkIIalpha-i3 [DRSC08651], the screen gave firefly reporter light, replicate 1 = 14712; Renilla control light, replicate 1 = 4532. Against CG33702 [DRSC08986] the deposit lists firefly reporter light, replicate 1 = 3669; Renilla control light, replicate 1 = 1442. CG12725 [DRSC19501] showed firefly reporter light, replicate 1 = 20788; Renilla control light, replicate 1 = 12308.
